Measurements as given in PMC6362254.
No constants are given. Whether binding was seen depends on the method and setting. Binding seen in cells or lysates may run through a third protein. Some results given as binding are weak or reduced against the parent protein; the word gives no strength. One block for each molecule: values may come before it.

The chains behind the UniProt entries cited, without tags or fusion partners.
UniProt Q96D31: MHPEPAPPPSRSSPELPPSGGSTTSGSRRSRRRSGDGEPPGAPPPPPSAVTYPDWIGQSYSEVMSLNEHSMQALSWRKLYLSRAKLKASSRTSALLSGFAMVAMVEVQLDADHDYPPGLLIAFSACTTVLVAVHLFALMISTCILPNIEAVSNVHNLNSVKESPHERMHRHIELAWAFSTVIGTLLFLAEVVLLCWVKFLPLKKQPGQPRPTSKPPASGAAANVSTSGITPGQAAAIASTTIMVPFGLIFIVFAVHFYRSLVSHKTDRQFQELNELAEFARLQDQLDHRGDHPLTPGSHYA

Columns and labels:
[1] = biological target: T1, Kv10.1 (hEag1) (human (endogenous in MCF-7)) (UniProt O95259); assay: co-IP; immunoprecipitation with anti-Kv10.1 antibody (4 ug, overnight, 4 °C, magnetic beads A) from RIPA extract of MCF-7 cells, siCtl or siSPCA2; blot for Orai1
T1 sequence: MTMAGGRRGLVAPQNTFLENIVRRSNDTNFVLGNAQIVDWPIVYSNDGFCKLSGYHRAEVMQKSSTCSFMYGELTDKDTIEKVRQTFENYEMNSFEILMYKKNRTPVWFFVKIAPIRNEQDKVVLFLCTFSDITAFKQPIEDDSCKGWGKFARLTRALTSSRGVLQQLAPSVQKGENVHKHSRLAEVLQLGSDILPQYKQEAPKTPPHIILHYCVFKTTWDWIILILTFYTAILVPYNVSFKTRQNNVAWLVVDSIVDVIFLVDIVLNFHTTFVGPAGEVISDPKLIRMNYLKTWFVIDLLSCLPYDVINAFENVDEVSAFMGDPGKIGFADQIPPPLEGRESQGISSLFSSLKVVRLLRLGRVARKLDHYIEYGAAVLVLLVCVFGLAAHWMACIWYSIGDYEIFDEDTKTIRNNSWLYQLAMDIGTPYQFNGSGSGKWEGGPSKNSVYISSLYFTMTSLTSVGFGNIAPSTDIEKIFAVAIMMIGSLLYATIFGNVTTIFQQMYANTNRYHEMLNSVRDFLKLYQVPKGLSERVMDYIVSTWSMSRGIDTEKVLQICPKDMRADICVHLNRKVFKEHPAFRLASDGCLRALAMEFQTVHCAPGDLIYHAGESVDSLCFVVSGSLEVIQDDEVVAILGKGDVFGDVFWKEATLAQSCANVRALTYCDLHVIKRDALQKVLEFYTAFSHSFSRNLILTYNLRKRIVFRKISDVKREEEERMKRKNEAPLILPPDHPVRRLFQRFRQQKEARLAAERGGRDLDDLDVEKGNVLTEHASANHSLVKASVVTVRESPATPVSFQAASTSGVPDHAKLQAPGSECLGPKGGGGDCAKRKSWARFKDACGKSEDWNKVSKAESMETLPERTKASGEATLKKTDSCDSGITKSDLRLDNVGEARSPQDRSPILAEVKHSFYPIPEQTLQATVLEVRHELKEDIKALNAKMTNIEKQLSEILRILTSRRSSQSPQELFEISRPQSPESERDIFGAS

[2] = biological target: T2, SPCA2 (Secretory Pathway Ca2+-ATPase 2) (human (endogenous in MCF-7)) (UniProt O75185); assay: co-IP; immunoprecipitation with anti-SPCA2 antibody (4 ug, overnight, 4 °C, magnetic beads A) from 1 mg RIPA extract of MCF-7 cells after 48 h of starvation, seeded or not on collagen 1, with or without MβCD (5 mg/ml, 2 h); blot for Kv10.1 and Orai1
T2 sequence: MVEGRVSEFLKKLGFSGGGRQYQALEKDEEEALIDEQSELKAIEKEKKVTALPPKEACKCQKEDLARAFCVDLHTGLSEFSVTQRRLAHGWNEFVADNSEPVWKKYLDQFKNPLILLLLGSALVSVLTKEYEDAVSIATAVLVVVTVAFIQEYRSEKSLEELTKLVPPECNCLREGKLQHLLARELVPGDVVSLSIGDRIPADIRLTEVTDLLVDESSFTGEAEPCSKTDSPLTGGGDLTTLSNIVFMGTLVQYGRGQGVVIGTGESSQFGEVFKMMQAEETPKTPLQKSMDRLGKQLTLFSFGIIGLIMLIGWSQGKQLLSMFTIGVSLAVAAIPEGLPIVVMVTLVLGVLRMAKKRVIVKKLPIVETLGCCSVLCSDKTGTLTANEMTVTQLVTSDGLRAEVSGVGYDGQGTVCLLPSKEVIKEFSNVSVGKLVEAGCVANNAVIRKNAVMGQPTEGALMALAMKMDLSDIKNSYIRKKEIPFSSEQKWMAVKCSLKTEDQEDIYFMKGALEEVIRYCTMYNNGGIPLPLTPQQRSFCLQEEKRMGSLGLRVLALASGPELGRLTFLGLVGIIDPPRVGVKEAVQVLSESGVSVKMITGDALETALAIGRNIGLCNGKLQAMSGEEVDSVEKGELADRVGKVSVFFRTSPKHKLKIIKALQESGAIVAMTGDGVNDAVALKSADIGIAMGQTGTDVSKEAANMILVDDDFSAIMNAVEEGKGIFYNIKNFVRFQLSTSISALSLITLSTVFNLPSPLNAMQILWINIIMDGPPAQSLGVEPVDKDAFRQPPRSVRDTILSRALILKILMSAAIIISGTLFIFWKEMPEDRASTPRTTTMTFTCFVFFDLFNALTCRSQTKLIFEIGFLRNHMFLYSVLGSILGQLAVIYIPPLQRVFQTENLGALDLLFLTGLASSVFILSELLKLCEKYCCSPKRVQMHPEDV

binding [1]: binds
binding [2]: binds
Molecule: Orai1 (from UniProt Q96D31 1-301)

binding [2]: binds
B1: Kv10.1 (hEag1) (protein, UniProt O95259 1-989)
chain: T1 sequence
